Here are results for 24 targets from the supplement of paper PMC10849652.

Sequences of proteins named here, by UniProt entry; tags and fusion partners are left off. A change or cut given only in a name is not applied to a line headed by its entry.
UniProt Q9NVX7: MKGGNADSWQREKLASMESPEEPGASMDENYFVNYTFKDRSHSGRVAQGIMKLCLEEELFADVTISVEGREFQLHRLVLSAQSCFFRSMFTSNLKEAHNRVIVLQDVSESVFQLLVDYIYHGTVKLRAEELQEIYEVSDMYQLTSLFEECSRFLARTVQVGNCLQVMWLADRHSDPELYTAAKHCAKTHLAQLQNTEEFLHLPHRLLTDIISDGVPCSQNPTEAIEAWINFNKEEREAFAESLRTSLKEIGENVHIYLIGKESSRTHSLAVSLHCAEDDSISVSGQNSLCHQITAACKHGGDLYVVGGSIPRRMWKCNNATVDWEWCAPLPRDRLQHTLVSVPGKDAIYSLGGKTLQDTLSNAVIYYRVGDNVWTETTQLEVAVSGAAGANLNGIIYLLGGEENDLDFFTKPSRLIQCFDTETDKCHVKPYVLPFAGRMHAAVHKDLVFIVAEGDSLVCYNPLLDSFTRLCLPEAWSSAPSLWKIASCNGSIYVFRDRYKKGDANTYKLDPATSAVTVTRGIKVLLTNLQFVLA
UniProt Q14653: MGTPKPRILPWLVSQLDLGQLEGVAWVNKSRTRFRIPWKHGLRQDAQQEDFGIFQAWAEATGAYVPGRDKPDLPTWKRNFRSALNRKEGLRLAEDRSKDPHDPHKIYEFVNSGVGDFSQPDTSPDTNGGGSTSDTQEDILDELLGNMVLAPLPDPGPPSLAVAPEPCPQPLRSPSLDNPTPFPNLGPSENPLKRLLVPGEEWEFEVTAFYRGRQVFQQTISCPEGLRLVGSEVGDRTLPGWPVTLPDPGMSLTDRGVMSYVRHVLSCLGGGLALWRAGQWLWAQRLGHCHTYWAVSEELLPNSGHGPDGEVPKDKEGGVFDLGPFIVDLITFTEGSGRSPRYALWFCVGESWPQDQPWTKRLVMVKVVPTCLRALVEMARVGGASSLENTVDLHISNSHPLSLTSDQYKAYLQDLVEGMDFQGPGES
UniProt Q9NXV2: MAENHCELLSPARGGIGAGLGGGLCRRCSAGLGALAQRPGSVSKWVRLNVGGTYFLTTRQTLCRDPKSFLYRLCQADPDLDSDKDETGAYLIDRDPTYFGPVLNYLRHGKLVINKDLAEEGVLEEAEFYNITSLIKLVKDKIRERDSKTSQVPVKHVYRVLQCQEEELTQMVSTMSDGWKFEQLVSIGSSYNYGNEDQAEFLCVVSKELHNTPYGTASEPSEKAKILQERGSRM
UniProt Q92551: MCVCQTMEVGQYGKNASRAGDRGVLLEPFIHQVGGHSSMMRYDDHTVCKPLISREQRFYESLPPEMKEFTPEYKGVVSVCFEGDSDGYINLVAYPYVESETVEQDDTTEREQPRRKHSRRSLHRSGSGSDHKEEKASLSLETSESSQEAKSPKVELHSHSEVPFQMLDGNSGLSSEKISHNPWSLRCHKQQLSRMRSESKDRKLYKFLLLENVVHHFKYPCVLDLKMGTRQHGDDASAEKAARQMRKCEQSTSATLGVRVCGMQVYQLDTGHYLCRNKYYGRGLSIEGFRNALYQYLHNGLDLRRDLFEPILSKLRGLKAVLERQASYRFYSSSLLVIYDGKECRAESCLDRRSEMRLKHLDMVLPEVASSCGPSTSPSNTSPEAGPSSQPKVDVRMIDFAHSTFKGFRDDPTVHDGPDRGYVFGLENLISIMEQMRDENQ
UniProt Q9H3F6: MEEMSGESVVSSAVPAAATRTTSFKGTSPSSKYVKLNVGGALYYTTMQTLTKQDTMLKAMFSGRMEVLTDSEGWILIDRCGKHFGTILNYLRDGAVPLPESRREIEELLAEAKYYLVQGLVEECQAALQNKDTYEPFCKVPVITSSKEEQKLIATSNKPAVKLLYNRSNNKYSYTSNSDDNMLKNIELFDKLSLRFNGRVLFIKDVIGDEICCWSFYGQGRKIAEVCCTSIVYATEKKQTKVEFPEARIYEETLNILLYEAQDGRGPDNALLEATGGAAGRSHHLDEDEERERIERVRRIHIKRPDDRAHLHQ
UniProt P48200: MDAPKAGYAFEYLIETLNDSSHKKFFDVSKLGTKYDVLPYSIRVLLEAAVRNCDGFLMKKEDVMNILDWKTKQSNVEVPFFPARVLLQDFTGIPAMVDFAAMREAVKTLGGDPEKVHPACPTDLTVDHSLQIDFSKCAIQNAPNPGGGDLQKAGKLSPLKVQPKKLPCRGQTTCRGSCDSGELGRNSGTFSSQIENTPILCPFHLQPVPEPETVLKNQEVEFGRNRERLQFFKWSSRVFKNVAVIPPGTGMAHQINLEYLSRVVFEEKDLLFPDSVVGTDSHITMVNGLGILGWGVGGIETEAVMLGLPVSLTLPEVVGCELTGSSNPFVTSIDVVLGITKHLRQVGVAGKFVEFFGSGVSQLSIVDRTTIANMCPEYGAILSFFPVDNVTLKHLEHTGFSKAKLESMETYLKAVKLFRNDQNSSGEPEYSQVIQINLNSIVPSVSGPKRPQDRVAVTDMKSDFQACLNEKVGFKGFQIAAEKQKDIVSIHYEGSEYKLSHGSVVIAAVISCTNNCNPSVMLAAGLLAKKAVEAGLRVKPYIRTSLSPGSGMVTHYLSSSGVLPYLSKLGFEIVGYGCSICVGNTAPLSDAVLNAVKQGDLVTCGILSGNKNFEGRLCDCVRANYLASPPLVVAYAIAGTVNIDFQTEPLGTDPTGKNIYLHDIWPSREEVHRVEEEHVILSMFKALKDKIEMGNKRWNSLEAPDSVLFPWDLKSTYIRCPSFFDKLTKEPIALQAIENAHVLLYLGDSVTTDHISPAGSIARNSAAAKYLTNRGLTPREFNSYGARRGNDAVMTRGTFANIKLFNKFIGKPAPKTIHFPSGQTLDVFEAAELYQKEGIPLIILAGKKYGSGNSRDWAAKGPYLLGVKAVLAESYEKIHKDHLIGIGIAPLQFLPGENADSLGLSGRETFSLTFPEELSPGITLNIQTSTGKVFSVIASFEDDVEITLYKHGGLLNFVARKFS
UniProt Q13576: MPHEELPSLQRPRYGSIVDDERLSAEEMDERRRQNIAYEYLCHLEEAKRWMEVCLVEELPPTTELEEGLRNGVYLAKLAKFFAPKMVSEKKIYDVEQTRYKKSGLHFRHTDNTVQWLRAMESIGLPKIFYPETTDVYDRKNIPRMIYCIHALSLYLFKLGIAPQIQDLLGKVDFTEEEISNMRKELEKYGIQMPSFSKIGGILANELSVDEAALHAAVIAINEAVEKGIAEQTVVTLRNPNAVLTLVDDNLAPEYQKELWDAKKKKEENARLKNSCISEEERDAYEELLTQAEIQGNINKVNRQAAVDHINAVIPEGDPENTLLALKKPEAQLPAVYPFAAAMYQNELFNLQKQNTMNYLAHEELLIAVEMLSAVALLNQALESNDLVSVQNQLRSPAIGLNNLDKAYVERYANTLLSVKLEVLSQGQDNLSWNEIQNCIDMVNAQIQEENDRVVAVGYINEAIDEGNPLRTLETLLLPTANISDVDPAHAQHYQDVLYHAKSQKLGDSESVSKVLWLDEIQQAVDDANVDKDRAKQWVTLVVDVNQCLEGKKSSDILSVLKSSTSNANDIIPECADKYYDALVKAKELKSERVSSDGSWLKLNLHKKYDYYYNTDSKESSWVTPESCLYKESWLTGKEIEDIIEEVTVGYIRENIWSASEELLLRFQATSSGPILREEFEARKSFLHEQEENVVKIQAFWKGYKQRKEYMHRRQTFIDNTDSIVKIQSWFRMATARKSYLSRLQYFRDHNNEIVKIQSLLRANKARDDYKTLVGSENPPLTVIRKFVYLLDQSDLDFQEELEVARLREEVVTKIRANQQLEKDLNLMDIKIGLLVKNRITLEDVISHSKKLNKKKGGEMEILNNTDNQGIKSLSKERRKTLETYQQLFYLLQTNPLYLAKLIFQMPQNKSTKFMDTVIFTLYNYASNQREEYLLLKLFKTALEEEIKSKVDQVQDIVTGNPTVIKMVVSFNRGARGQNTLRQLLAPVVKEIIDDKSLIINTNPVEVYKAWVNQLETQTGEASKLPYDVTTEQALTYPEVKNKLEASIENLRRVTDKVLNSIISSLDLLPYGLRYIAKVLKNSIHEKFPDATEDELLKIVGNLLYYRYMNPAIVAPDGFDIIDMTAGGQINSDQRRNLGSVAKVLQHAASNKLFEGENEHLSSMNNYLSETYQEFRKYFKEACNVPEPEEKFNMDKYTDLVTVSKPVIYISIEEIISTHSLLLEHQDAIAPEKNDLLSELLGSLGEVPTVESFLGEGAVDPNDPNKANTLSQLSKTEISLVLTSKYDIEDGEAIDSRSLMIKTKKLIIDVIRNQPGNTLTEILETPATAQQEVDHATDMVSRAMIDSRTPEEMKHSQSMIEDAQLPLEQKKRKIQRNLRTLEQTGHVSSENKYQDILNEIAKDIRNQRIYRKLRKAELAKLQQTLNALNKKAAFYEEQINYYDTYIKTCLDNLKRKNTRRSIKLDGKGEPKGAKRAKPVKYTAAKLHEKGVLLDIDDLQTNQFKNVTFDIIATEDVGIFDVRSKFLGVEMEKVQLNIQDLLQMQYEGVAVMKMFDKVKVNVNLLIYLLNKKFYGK
UniProt P19823: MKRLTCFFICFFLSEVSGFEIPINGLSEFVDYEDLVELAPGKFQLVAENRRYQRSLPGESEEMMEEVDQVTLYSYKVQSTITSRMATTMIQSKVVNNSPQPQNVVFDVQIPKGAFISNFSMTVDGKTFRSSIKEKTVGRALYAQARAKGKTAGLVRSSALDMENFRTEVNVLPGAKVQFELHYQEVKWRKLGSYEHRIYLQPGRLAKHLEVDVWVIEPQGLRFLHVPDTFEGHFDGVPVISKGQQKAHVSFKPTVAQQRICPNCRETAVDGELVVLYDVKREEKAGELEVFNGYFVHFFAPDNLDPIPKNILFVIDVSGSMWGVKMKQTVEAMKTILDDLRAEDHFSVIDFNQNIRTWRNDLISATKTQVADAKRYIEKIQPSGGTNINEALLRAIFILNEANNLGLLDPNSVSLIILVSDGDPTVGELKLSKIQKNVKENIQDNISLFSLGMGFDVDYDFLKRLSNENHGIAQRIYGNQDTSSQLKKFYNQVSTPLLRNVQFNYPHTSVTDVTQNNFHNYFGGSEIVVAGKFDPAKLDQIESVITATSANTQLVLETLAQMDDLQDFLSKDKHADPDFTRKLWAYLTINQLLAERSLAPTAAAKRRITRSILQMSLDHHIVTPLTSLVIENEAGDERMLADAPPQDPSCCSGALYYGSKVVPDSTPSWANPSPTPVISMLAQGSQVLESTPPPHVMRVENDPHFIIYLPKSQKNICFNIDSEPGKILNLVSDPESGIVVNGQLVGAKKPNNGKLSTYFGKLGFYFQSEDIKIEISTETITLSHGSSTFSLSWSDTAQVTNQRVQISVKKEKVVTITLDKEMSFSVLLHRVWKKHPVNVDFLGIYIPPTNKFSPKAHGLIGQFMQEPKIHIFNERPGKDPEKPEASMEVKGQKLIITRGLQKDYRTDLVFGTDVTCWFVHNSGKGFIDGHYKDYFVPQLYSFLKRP
UniProt Q96AB3: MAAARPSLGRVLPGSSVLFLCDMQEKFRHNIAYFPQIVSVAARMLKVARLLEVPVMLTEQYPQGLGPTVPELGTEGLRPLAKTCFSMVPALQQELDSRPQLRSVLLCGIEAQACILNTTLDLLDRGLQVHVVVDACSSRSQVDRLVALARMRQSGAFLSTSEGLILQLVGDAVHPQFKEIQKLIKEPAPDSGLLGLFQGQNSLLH
UniProt P05556, whole entry, looked up: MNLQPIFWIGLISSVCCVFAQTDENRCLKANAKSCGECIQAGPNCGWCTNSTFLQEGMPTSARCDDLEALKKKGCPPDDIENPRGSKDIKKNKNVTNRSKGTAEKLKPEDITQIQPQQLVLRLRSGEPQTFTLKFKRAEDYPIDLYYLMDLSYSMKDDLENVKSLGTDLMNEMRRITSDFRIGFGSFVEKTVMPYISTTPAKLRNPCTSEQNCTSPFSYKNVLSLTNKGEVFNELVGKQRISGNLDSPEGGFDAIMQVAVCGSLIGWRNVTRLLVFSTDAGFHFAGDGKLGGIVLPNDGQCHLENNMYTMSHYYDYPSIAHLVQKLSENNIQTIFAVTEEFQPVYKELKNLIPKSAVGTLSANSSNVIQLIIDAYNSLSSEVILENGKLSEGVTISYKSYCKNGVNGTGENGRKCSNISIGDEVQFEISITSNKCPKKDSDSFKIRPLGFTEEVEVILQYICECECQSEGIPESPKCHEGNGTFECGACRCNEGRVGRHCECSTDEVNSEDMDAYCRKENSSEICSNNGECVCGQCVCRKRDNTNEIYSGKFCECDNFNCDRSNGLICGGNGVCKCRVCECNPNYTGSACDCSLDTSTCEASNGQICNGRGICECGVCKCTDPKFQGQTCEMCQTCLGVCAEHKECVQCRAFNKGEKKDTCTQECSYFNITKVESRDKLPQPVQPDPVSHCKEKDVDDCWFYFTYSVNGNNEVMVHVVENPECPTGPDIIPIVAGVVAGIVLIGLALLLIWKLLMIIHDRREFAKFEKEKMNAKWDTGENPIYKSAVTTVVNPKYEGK

The list shows a part of the results.

Compound in this assay: C1=CC=C(C=C1)[C@H](COC2=CC3=C(C=C2)NC(=O)N3)NC(=O)C4=CC=CN(C4=O)CC5=CC(=C(C=C5)F)F
Nature of the assay: log2 fold change, soluble protein after heating vs DMSO (PISA); higher = thermal stabilisation; K562 lysate, 10 uM; active = over 0.2 and 3.5 SD of the protein, either way, in both replicates (recomputed). Summed up: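 The values are log-two fold changes in thermal stability compared with solvent controls and come from duplicates. They were obtained by TMTpro 16plex LC-MS/MS, with channel sums equalised, on the supernatant after 21,000xg for 90 min. That supernatant came from crude K562 extract at 1 mg/mL protein treated with 10 μM compound for 30 min, heated for 3 min across 48°C-58°C, pooled and brought to 0.5% NP-40 at 4°C.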
IQUB (UniProt Q8NA54): the log2 fold change was inactive: 0.137.

On to KBTBD4 isoform 2 (UniProt Q9NVX7), for which the log2 fold change was inactive: -0.014. Then IWS1 (UniProt Q96ST2), with inactive: 0.019. As to IRF3 (UniProt Q14653), the log2 fold change is inactive: 0.036. For the target KDM1B (UniProt Q8NB78), the log2 fold change is inactive: -0.043. The result for ITPR1 (UniProt Q14643) reads inactive: 0.004; that for JMJD1C (UniProt Q15652), inactive: 0.081. Then KATNB1 (UniProt Q9BVA0), with inactive: -0.001. As for KATNAL1 (UniProt Q9BW62), the log2 fold change was inactive: -0.029. The result for KCTD5 (UniProt Q9NXV2) reads inactive: 0.104. Then IP6K1 (UniProt Q92551), with inactive: 0.013. Consider KCTD10 (UniProt Q9H3F6), for which the log2 fold change was inactive: 0.049. The result for KCTD9 (UniProt Q7L273) reads inactive: 0.03; that for IREB2 (UniProt P48200), inactive: 0.011; that for IQGAP2 (UniProt Q13576), inactive: -0.013. Then ITIH2 (UniProt P19823), with inactive: 0.018. The result for ISOC2 (UniProt Q96AB3) reads inactive: -0.014. Turning to JMJD4 (UniProt Q9H9V9), the log2 fold change is inactive: 0.057. The result for ITGB1 (UniProt P05556) reads inactive: 0.026; that for INTS4 (UniProt Q96HW7), inactive: 0.024. The result for KCTD3 (UniProt Q9Y597) reads inactive: 0.04; that for JAK3 (UniProt P52333), inactive: 0.031; that for ITM2A (UniProt O43736), inactive: -0.276. Then KAT8 (UniProt Q9H7Z6), with inactive: 0.079.
